Experimental data reported in paper PMC10690843.
Construct, isoform or probe ends are uncertain for at least one entry.

Target: alpha-synuclein oligomers, 6 h aggregated (UniProt P37840)
Test: blotting assay
Conditions: alpha-synuclein oligomers of the cited work, preparation may differ from P1, Incubation 2 h in 100 mM KCl, 50 mM NaCl, 5 mM MgCl2, 10 mM Tris-EDTA pH 8.0 (oligomers diluted in PBS pH 7.3), measured in 2 M LiCl, recombinant protein, folded or branched DNA

Sequence: GGTGCGGCGGGACTAGTGGGTGTG [T-SO530 aptamer alone]
- Kd: 0.063 µM
